Laboratory results as given in patent publication US20250235548A1 (Zymeworks BC Inc., priority 2022, published 2025).

Assay: general procedure: solution-phase peptide synthesis
Details: for conjugation yield: conjugation step

## 2-((2-(((S)-1-((2-(((S)-4-ethyl-8-fluoro-4-hydroxy-3,14-dioxo-3,4,12,14-tetrahydro-1H-pyrano[3′,4′:6,7]indolizino[1,2-b]quinolin-9-yl)amino)-2-oxoethyl)amino)-1-oxo-3-phenylpropan-2-yl)amino)-2-oxoethyl)amino)-2-oxoethan-1-aminium
Coupling step
  step yield: 88%

## 6-(2,5-dioxo-2,5-dihydro-1H-pyrrol-1-yl)-N-(2-((2-(((S)-1-((2-(((S)-4-ethyl-8-fluoro-4-hydroxy-3,14-dioxo-3,4,12,14-tetrahydro-1H-pyrano[3′,4′:6,7]indolizino[1,2-b]quinolin-9-yl)amino)-2-oxoethyl)amino)-1-oxo-3-phenylpropan-2-yl)amino)-2-oxoethyl)amino)-2-oxoethyl)hexanamide
Late stage modification step
  step yield: 40%

## (2S)-2-(2-(2-aminoacetamido)acetamido)-N-(2-((((3-(((S)-4-ethyl-8-fluoro-4-hydroxy-9-methyl-3,14-dioxo-3,4,12,14-tetrahydro-1H-pyrano[3′,4′:6,7]indolizino[1,2-b]quinolin-11-yl)methyl)-3-azabicyclo[3.1.1]heptan-6-yl)oxy)methyl)amino)-2-oxoethyl)-3-phenylpropanamide
TFA salt
  conjugation yield: 29%

## (9H-fluoren-9-yl)methyl ((7S)-1-((3-azabicyclo[3.1.1]heptan-6-yl)oxy)-7-benzyl-3,6,9,12-tetraoxo-2,5,8,11-tetraazatridecan-13-yl)carbamate
Late stage modification step
  step yield: 46%

## (9H-fluoren-9-yl)methyl (S)-(9-benzyl-1-(3-fluoroazetidin-3-yl)-5,8,11,14-tetraoxo-2-oxa-4,7,10,13-tetraazapentadecan-15-yl)carbamate
Late stage modification step
  step yield: 54%

## (9H-fluoren-9-yl)methyl (S)-(12-benzyl-1-(4-nitrophenoxy)-1,8,11,14,17-pentaoxo-2,5-dioxa-7,10,13,16-tetraazaoctadecan-18-yl)carbamate
Late stage modification step, from Compound 4.6
  step yield: 53%

## (S)-2-(1-(2,5-dioxo-2,5-dihydro-1H-pyrrol-1-yl)-12,15-dioxo-3,6,9-trioxa-13,16-diazaoctadecan-18-amido)-N-(1-((S)-4-ethyl-8-fluoro-4-hydroxy-9-methyl-3,14-dioxo-3,4,12,14-tetrahydro-1H-pyrano[3′,4′:6,7]indolizino[1,2-b]quinolin-11-yl)-3,10-dioxo-7-oxa-2,4,9-triazaundecan-11-yl)-3-phenylpropana
Coupling step
  step yield: 26% yield

## (S)-2-(2-(2-aminoacetamido)acetamido)-N-(2-((((1-(((S)-4-ethyl-8-fluoro-4-hydroxy-9-methyl-3,14-dioxo-3,4,12,14-tetrahydro-1H-pyrano[3′,4′:6,7]indolizino[1,2-b]quinolin-11-yl)methyl)-3-fluoroazetidin-3-yl)methoxy)methyl)amino)-2-oxoethyl)-3-phenylpropanamide
TFA salt
  conjugation yield: 28%

## (S)-16-amino-10-benzyl-6,9,12,15-tetraoxo-3-oxa-5,8,11,14-tetraazahexadecyl (((S)-4-ethyl-8-fluoro-4-hydroxy-9-methyl-3,14-dioxo-3,4,12,14-tetrahydro-1H-pyrano[3′,4′:6,7]indolizino[1,2-b]quinolin-11-yl)methyl)carbamate
TFA salt
  conjugation yield: 39%

## tert-butyl (2-((2-(((S)-1-((2-(((S)-4-ethyl-8-fluoro-4-hydroxy-3,14-dioxo-3,4,12,14-tetrahydro-1H-pyrano[3′,4′:6,7]indolizino[1,2-b]quinolin-9-yl)amino)-2-oxoethyl)amino)-1-oxo-3-phenylpropan-2-yl)amino)-2-oxoethyl)amino)-2-oxoethyl)carbamate
  conjugation yield: 17%

## tert-butyl (2-((2-(((S)-1-((2-(((S)-4-ethyl-8-fluoro-4-hydroxy-11-(morpholinomethyl)-3,14-dioxo-3,4,12,14-tetrahydro-1H-pyrano[3′,4′:6,7]indolizino[1,2-b]quinolin-9-yl)amino)-2-oxoethyl)amino)-1-oxo-3-phenylpropan-2-yl)amino)-2-oxoethyl)amino)-2-oxoethyl)carbamate
  conjugation yield: 22%

## tert-butyl (((S)-9-(2-((S)-2-(2-(2-aminoacetamido)acetamido)-3-phenylpropanamido)acetamido)-4-ethyl-8-fluoro-4-hydroxy-3,14-dioxo-3,4,12,14-tetrahydro-1H-pyrano[3′,4′:6,7]indolizino[1,2-b]quinolin-11-yl)methyl)carbamate
Coupling step, TFA salt
  step yield: 64%
